Experimental data: PubChem BioAssay AID1259308 (NCATS, 2017)

Screen: 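Genes whose loss raises luciferase production in HEK293 cells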 (primary screen)
Cell system: human HEK293 embryonic kidney cells stably expressing firefly luciferase (HEK-CMV-Luc2-Hygro)
Reagents: single siRNA against human genes, 0.8 pmol siRNA per well
Duration: 72 h
Detection: 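Luciferase light (ONE-Glo) measured on one replicate plate set and viability (CellTiter-Glo) on the other, scaled to a negative control siRNA, with robust z-scores and luciferase per cell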
Reading the numbers: total luciferase, z-score and total luciferase, % of control: higher = more reporter protein produced; luciferase per cell, z-score: higher = more reporter output per viable cell
Call rule: 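An siRNA counts as active if its total luciferase robust z-score exceeds 3; genes with two or more such siRNAs out of three were retested with fresh siRNAs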
Meaning of the calls: active = raised luciferase; inactive = no rise
Here is one part, drawn at random, of about 59,000 reagents tested. In the full data, about 1,510 (2.6%) are marked active. 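Calls use total luciferase alone and ignore viability, so some active siRNAs may act by altering cell number.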 The numbers tell different reagents against one gene apart. Not all columns of the deposit are shown.

gene | reagent | total luciferase, z-score | total luciferase, % of control | luciferase per cell, z-score | Outcome
LRRC3 (leucine rich repeat containing 3) | 1 | 0.708 | 96 | 1.18 | inactive
LRRC3 (leucine rich repeat containing 3) | 2 | -0.322 | 75.5 | -0.0439 | inactive
LRRC3 (leucine rich repeat containing 3) | 3 | 1.13 | 104 | 0.545 | inactive
RAB35 (RAB35, member RAS oncogene family) | 1 | 0.411 | 90.1 | -0.356 | inactive
RAB35 (RAB35, member RAS oncogene family) | 2 | 0.613 | 94.1 | -0.127 | inactive
RAB35 (RAB35, member RAS oncogene family) | 3 | 0.293 | 87.7 | 0.129 | inactive
NEK4 (NIMA related kinase 4) | 1 | -1.76 | 46.9 | -1.28 | inactive
NEK4 (NIMA related kinase 4) | 2 | 0.686 | 95.5 | 0.714 | inactive
NEK4 (NIMA related kinase 4) | 3 | -1.04 | 61.1 | -1.29 | inactive
LINC02694 (long independently transcribed non-coding RNA 2694) | 1 | 0.726 | 96.3 | 1.47 | inactive
LINC02694 (long independently transcribed non-coding RNA 2694) | 2 | -1.08 | 60.4 | 0.0181 | inactive
LINC02694 (long independently transcribed non-coding RNA 2694) | 3 | 1.47 | 111 | 0.737 | inactive
RASSF10 (Ras association domain family member 10) | 1 | 0.708 | 96 | 0.0272 | inactive
RASSF10 (Ras association domain family member 10) | 2 | -0.623 | 69.5 | -0.256 | inactive
RASSF10 (Ras association domain family member 10) | 3 | -0.705 | 67.9 | -0.192 | inactive
APLN (apelin) | 1 | -0.116 | 79.6 | -0.064 | inactive
APLN (apelin) | 2 | 1.54 | 112 | 0.869 | inactive
APLN (apelin) | 3 | -0.521 | 71.5 | -0.0474 | inactive
PAX9 (paired box 9) | 1 | -0.345 | 75 | -0.735 | inactive
PAX9 (paired box 9) | 2 | -1.25 | 57 | -0.976 | inactive
PAX9 (paired box 9) | 3 | 2.56 | 133 | 1.49 | inactive
CASP9 (caspase 9) | 1 | -0.702 | 67.9 | -0.787 | inactive
CASP9 (caspase 9) | 2 | -1.08 | 60.4 | -0.843 | inactive
CASP9 (caspase 9) | 3 | -1.54 | 51.2 | -1.06 | inactive
